# Assay results

From PubChem BioAssay record AID912 (NCATS, 2007).

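A cell-based FRET test of anthrax lethal toxin entry, tracked through the 460 nm emission signal; the cell line is not named here. Each compound was tested as a concentration series from about 0.0005 to 40 µM. The number is the fitted AC50 of the 460 nm signal alone; lower values mean a more potent effect. A falling signal goes with compounds filed as inhibitors or cytotoxic, a rising one with activators or fluorescent compounds (inferred from the filed classes).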

Values are in nM. Common to all entries: measured here: 460 nm channel. This is a side read-out of the assay, for part of the compounds, not drawn at random. Potencies fitted to partial, single-point or poorly fitting curves are rough. The first word of each remark tells which way the curve ran; it can be opposite to the aim of the assay.

{"structure": "COC(=O)N1CCC2(CCN(C(=O)Nc3cccc(C#N)c3)CC2)CC1", "AC50 (nM)": "31622", "remark": "falling, single point"}
{"structure": "O=C(O)COc1ccc(OCCNC[C@@H](O)COc2ccccc2)cc1", "AC50 (nM)": "12589", "remark": "falling, single point"}
{"structure": "O=S(=O)(NCCCN1CCN(c2ccccc2F)CC1)c1cccc2cccnc12", "AC50 (nM)": "31622", "remark": "falling, single point"}
{"structure": "O=C(OCN1C(=O)c2ccccc2C1=O)c1ccccc1", "AC50 (nM)": "125.9", "remark": "falling, full curve, poor fit"}
{"structure": "C=CCSc1nc2c(c(=O)[nH]1)C(C(C)C)C(C#N)=C(N)O2", "stereo": "stereo not shown", "AC50 (nM)": "15848", "remark": "rising, single point"}
{"structure": "COc1cccc(NS(=O)(=O)c2ccc(NC(C)=O)cc2)c1", "AC50 (nM)": "31622", "remark": "falling, single point"}
{"structure": "Cn1cccc1P(=O)(c1cccn1C)c1cccn1C", "AC50 (nM)": "7.943", "remark": "falling, full curve"}
{"structure": "COC(=O)[C@@H](NC(=O)NCc1cccs1)C(C)C", "AC50 (nM)": "3981", "remark": "falling, partial curve, poor fit"}
{"structure": "CC(=O)N1CCC2(CCN(Cc3cc(C(F)(F)F)cc(C(F)(F)F)c3)CC2)CC1", "AC50 (nM)": "25118", "remark": "rising, single point"}
{"structure": "CCc1ccc(-c2nc(CSCC(=O)N3CCN(c4ccccn4)CC3)c(C)o2)cc1", "AC50 (nM)": "12589", "remark": "falling, partial curve"}
{"structure": "CS(=O)(=O)c1nc(-c2ccccc2)cc(C(F)(F)F)n1", "AC50 (nM)": "7943", "remark": "falling, partial curve"}
{"structure": "COc1ccccc1NC(=O)CSc1nnc(-c2ccco2)o1", "AC50 (nM)": "100", "remark": "falling, full curve, poor fit"}
{"structure": "Cc1cccn2c(=O)c3cc(C#N)c(=O)n(CCCN4CCOCC4)c3nc12", "AC50 (nM)": "31622", "remark": "rising, single point"}
{"structure": "CCCC(=O)c1ccc(N2CCN(C(=O)c3ccccc3)CC2)c(F)c1", "AC50 (nM)": "31622", "remark": "falling, single point"}
{"structure": "O=C(Nc1cccc(F)c1)N1CCC2(CC1)CCN(C(=O)c1cc(C(F)(F)F)cc(C(F)(F)F)c1)CC2", "AC50 (nM)": "15848", "remark": "rising, partial curve"}
{"structure": "CN(C)c1ccnc2sc(C(=O)NCc3ccccc3)c(N)c12", "AC50 (nM)": "15848", "remark": "falling, single point"}
{"structure": "COC(=O)N1CCC2(CCN(Cc3ccc(C#N)cc3)CC2)CC1", "AC50 (nM)": "31622", "remark": "falling, single point"}
{"structure": "Cc1cc(C)nc(Nc2ncc(O)n2-c2ccc(C)c(Cl)c2)n1", "AC50 (nM)": "15848", "remark": "rising, single point"}
{"structure": "CCCCN1Cc2cc(C(=O)c3cc(F)ccc3O)cnc2NC1=O", "AC50 (nM)": "19952", "remark": "rising, single point"}
{"structure": "Cc1onc(-c2ccccc2Cl)c1C(=O)Nc1ccc(S(=O)(=O)N2CCCC2)cc1", "AC50 (nM)": "15848", "remark": "falling, single point"}
{"structure": "Cc1ccc(O)c(-c2cc(C(F)(F)C(F)F)[nH]n2)c1", "AC50 (nM)": "31622", "remark": "falling, single point"}
{"structure": "O=c1c2cnn(-c3ccccc3)c2ncn1Cc1cccc(Cl)c1", "AC50 (nM)": "12589", "remark": "falling, partial curve"}
{"structure": "COc1ccccc1CCn1c(=O)c(-c2cccc(Cl)c2)nc2cncnc21", "AC50 (nM)": "12589", "remark": "falling, single point"}
{"structure": "Cc1oc(-c2cccc(Cl)c2)[n+]([O-])c1C", "AC50 (nM)": "10", "remark": "falling, full curve, poor fit"}
{"structure": "O=C(COC(=O)c1ccc(S(=O)(=O)Nc2ccccc2)cc1)NCCN1C(=O)CSC1=O", "AC50 (nM)": "5012", "remark": "rising, single point"}
{"structure": "O=c1c(CCc2ccccc2)nc2cnc(N3CCOCC3)nc2n1Cc1cccs1", "AC50 (nM)": "25118", "remark": "rising, partial curve"}

The first 3 entries again:

structure,AC50 (nM),remark
COC(=O)N1CCC2(CCN(C(=O)Nc3cccc(C#N)c3)CC2)CC1,31622,"falling, single point"
O=C(O)COc1ccc(OCCNC[C@@H](O)COc2ccccc2)cc1,12589,"falling, single point"
O=S(=O)(NCCCN1CCN(c2ccccc2F)CC1)c1cccc2cccnc12,31622,"falling, single point"